Measured data: PubChem BioAssay AID652243 (Drosophila RNAi Screening Center, 2013)

- Screen: 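Knock-downs that decrease or increase androgen receptor reporter signal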 (primary screen)
- Cells: Drosophila S2R+ cells
- Reagents: long dsRNA against Drosophila genes
- Timing: 72 h (48 h, then 24 h hormone)
- Treatment: synthetic androgen R1881 at 10 nM for 24 h
- Measured: 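Firefly light from an androgen-responsive reporter and Renilla control light per well, raw and unnormalised, for each of two replicates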
- Scale: firefly reporter light: higher = more light from androgen-responsive reporter; Renilla control light: higher = more constitutive control signal (cell number, transfection)
- Active means: 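Hit when the log firefly-to-Renilla ratio dropped or increased by a fixed fold versus the mean of GFP or LacZ controls across duplicate plates; lowering cut given as 1.5 and as 3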
- Calls: active = hit: reporter lowered or raised; inactive = no hit
The screen tested about 24,000 reagents; below is a random part of those with a known target gene and a result. Of all reagents, 246 (1%) got an active call. 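Plates not normalised; calls are printed but the firefly/Renilla ratio behind them is not deposited; fold cut for lowering reported inconsistently.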 Raw values are not corrected between plates. Names joined by + are all predicted targets of the reagent. Not stated in the record: the amount of reagent.

The first 2 entries as a preview:
gene knocked down,amplicon,"firefly reporter light, replicate 1","firefly reporter light, replicate 2","Renilla control light, replicate 1","Renilla control light, replicate 2",Outcome
CG17712 (GeneID 33356),DRSC00266,8.65e5,1.01e6,2.43e6,1.95e6,inactive
Adck1 (GeneID 37938),DRSC04394,8.18e5,7.95e5,1.33e6,1.39e6,active

Results, from the start:
gene knocked down,amplicon,"firefly reporter light, replicate 1","firefly reporter light, replicate 2","Renilla control light, replicate 1","Renilla control light, replicate 2",Outcome
CG17712 (GeneID 33356),DRSC00266,8.65e5,1.01e6,2.43e6,1.95e6,inactive
Adck1 (GeneID 37938),DRSC04394,8.18e5,7.95e5,1.33e6,1.39e6,active
Adck1 (GeneID 37938),DRSC36882,,,,,inactive
CG3104 (GeneID 33486),DRSC25569,6.20e5,4.79e5,7.86e5,8.94e5,inactive
wg (GeneID 34009),DRSC03636,2.16e5,2.58e5,1.82e6,1.81e6,inactive
wg (GeneID 34009),DRSC29776,4.33e5,5.07e5,1.01e6,1.14e6,inactive
ImpE3 (GeneID 48239),DRSC16716,61361,71212,1.94e6,2.06e6,inactive
Or85b (GeneID 41007),DRSC16765,84715,1.14e5,1.64e6,2.54e6,inactive
Abl (GeneID 45821),DRSC09661,2.35e5,2.49e5,2.57e6,1.87e6,active
Abl (GeneID 45821),DRSC23306,5.97e5,6.70e5,2.90e5,3.30e5,active
Abl (GeneID 45821),DRSC36588,,,,,inactive
Abl (GeneID 45821),DRSC36589,,,,,inactive
CG42360 (GeneID 37937),DRSC04224,1.51e5,2.66e5,1.07e6,1.15e6,inactive
heca (GeneID 43604),DRSC22990,5.88e5,9.46e5,1.05e6,1.50e6,inactive
heca (GeneID 43604),DRSC25796,3.97e5,3.97e5,7.15e5,5.42e5,inactive
CG42260 + asRNA:CR30267,DRSC29385,2.90e5,4.16e5,7.76e5,7.76e5,inactive
Orc6 (GeneID 36017),DRSC07497,1.86e5,2.67e5,1.21e6,2.27e6,inactive
CG3588 (GeneID 31278),DRSC18473,5.45e5,7.02e5,3.87e6,3.44e6,inactive
CG3588 (GeneID 31278),DRSC24598,6.42e5,7.35e5,1.19e6,1.21e6,inactive
lncRNA:CR32835 (GeneID 12798142),DRSC22693,7.59e5,6.48e5,2.18e6,1.72e6,inactive
lncRNA:CR32835 (GeneID 12798142),DRSC26198,2.73e5,3.58e5,1.06e6,1.00e6,inactive
Ssu72 (GeneID 32973),DRSC19572,1.36e5,1.16e5,2.69e5,2.08e5,inactive
Ssu72 (GeneID 32973),DRSC27868,5.87e5,4.14e5,2.48e6,1.56e6,inactive
asRNA:Eig63F-2 (GeneID 4379905),DRSC27877,5.24e5,2.85e5,1.62e6,8.45e5,inactive
